What was measured is the transcript of the gene that encodes the chain shown.
B1: VPFRELKNQRTAQGAPGIHHAASPVAANLCDPARHAQHTRIPCGAGQVRAGRGPEAGGGVLQPQRPAPEKPGCPCRRGQPRLHTVKMWRA (peptide)
chain: VPFRELKNQRTAQGAPGIHHAASPVAANLCDPARHAQHTRIPCGAGQVRAGRGPEAGGGVLQPQRPAPEKPGCPCRRGQPRLHTVKMWRA
B2: VPFRELKNVSVLEGLRQGRLGGPCSCHCPRPSQARLTPVDVAGPFLCLGDPGLFPPVKSSI (peptide)
chain: VPFRELKNVSVLEGLRQGRLGGPCSCHCPRPSQARLTPVDVAGPFLCLGDPGLFPPVKSSI
B3: WGMELAASRRFSWDHHSAGGPPRVPSVRSGAAQVQPKDPLPLRTLAGCLARTAHLRPGAESLPQPQLHCT (peptide)
chain: WGMELAASRRFSWDHHSAGGPPRVPSVRSGAAQVQPKDPLPLRTLAGCLARTAHLRPGAESLPQPQLHCT
B4: CHLFLQPQVGTPPPHTASARAPSGPPHPHESCPAGRRPARAAQTCARRQHGLPGCEEAGTARVPSLHLHLHQAALGAGRGRGWGEACAQVPPSRG (peptide)
chain: CHLFLQPQVGTPPPHTASARAPSGPPHPHESCPAGRRPARAAQTCARRQHGLPGCEEAGTARVPSLHLHLHQAALGAGRGRGWGEACAQVPPSRG
B5: LWFQSSELSPTGAPWPSRRPTWRGTTVSPRTATSSARTCCGTKWPSSQEAALGLGSGLLRFSCGTAAIR (peptide)
chain: LWFQSSELSPTGAPWPSRRPTWRGTTVSPRTATSSARTCCGTKWPSSQEAALGLGSGLLRFSCGTAAIR

Test: Expression profiling of prostate neoantigens in tumor and normal tissues (qPCR, Fluidigm Biomark)
Parameters: species or system human
Details: FFPE prostate cancer samples

Molecule	qPCR Relative Average Ct
B1	12.1
B2	11.2
B3	14

Same assay, conditions: about 90 FFPE tissue samples from prostate cancer

Molecule	qPCR % Positive FFPE [%]
B1	25.6
B4	0.0
B2	52.2
B5	0
B3	11

Same assay, conditions: panel of normal tissues

Molecule	qPCR Normal Tissue Expression
B1	None
B4	None
B2	Mammary Gland
B5	None
B3	None

From patent US20230035403A1, “Method For Determining Responsiveness To Prostate Cancer Treatment” (Janssen Biotech, Inc., priority 2020, published 2023)
